Test results taken from PubChem BioAssay AID926 (National Center for Advancing Translational Sciences (NCATS), 2007).
Screen size: about 73,000 compounds; about 350 (0.48%) were called active. Inconclusive results (about 17%) are left out. Calls follow the shape of the dose curve; as a rule, active = well fitted activation curve with a large enough effect in the main read-out, with a control signal flat (not every such curve was filed as active); inconclusive = small, poorly fitted or top-dose-only effect, or a change in a side signal; inactive = no such curve, though single readings can be large or run the other way; % of control where 0% means no effect. The entries are a selection whose mix differs from that of the whole data set. Entries without a call were filed so in the source.

Protein sequences, listed by entry. Tags and fused reporters are not part of them.
UniProt P16473, whole entry, looked up: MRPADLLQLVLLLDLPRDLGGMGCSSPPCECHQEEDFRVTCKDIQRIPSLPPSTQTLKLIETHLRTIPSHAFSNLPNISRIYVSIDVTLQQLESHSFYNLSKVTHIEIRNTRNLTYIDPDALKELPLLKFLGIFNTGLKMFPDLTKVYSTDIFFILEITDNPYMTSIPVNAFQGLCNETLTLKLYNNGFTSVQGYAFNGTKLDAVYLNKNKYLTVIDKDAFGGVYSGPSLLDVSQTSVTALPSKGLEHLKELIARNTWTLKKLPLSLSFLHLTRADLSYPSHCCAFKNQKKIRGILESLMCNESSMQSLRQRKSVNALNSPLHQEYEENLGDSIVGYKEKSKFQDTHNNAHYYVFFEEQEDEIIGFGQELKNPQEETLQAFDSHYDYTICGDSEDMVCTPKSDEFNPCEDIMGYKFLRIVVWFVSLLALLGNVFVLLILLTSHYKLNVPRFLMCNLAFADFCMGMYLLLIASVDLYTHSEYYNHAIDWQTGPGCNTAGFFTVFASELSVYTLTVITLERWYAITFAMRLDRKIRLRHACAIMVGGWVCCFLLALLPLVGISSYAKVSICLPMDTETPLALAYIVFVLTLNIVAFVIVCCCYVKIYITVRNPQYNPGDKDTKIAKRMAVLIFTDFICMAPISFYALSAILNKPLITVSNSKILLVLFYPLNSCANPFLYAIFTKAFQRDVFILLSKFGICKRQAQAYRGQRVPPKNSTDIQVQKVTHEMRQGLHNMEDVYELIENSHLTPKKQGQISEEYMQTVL

Target: Thyrotropin receptor (Homo sapiens) (UniProt P16473)
Test: qHTS Assay for Agonists of the Thyroid Stimulating Hormone Receptor;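 also: the control signal comes from parental cells without the receptor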
Settings: HEK293-CNG-TSHR cells (CNG channel as cAMP sensor), membrane potential dye, cAMP; at 11.4 µM (top of the series) unless noted
From the text: NIH Chemical Genomics Center [NCGC]
NIH Molecular Libraries Screening Centers Network [MLSCN]
PI Name: Dr. Marvin Gershengorn, NIH
Thyroid Stimulating Hormone Receptor
TSH is an alpha/beta heterodimeric glycoprotein hormone secreted from the anterior pituitary gland which belongs to the glycoprotein hormone family. The actions of TSH are mediated by a seven-transmembrane receptor, which upon TSH binding couples preferentially to the G-alpha (s) protein (Gs), resulting in activation of adenylate cyclase and increase in cyclic adenosine 3', 5' monophosphate (cAMP). The TSH receptor (THSR) is mainly expressed in thyroid follicular cells and regulates their growth and function. Recombinant TSH is used to activate TSHR in patients with thyroid cancer receiving thyroid hormone suppression therapy and to screen for residual tumor after surgery, but it is expensive and must be administered intramuscularly. An orally active small molecule TSHR agonist would serve as an invaluable research tool for studying TSHR pharmacology and physiology, and would have multiple advantages in therapeutic settings. However, no selective small molecule agonist of the TSH receptor exists, and no small molecule screen for TSHR agonists has ever been reported.
This cell based assay utilized a cyclic nucleotide gated ion channel (CNG) as a biosensor for cAMP induction by potential TSHR agonists.
HEK 293 cells stably expressing the TSHR as well as a modified CNG were purchased from BD biosciences. Stimulation of cAMP production causes the CNG to open and subsequent membrane depolarization to occur. […]
High Throughput Screening. […] 23 nl/well compound or control was then added to the assay plates, which were incubated for additional 30 min before reading a Envision fluorescence plate reader (Perkin Elmer) in bottom-read mode for fluorescence intensity (emission at 590 nm).
Keywords: Thyroid-stimulating hormone TSH, TSHR, TSHR agonist, quantitative high throughput screening, qHTS, HTS, probe identification, CNG, cAMP, cyclic nucleotide gated ion channel PubChem

Row | SMILES | activation
1 | O=C(O)[C@@H]1[C@H](C(=O)O)[C@]2(Cl)C(Cl)=C(Cl)[C@@]1(Cl)C2(Cl)Cl | inactive: -2.25%
2 | O=C(O)c1cc(N=Nc2ccc([As](=O)(O)O)cc2)ccc1O | inactive: -58.3%
3 | C=CCOC(=O)C1=C(C)OC(N)=C(C(=O)OCC)C12C(=O)N(CC(N)=O)c1ccccc12 (stereo not drawn) | 45.3% [at 57.1 µM]
